# Among all 340,000 compounds or so, about 6,200 (1.8%) were called active. Inconclusive results, whose numbers are uncertain, are shown with a selection of clear calls. Calls come from the whole dose curve; as a rule, active = well fitted activation curve with a large enough effect; inconclusive = small, poorly fitted or top-dose-only effect; inactive = no such curve, though single readings can be large or run the other way. Where the call is inconclusive, the potency comes from a doubtful curve fit.
# Experiment: A quantitative high throughput screen for small molecules that induce DNA re-replication in SW480 colon adenocarcinoma cells. For re-replication activation: % of control where 0% means no effect. Note: nearly all actives have a fitted effect of over 55% in size.
# Conditions: Hoechst DNA content imaging, 48 h; re-replication activation: at 46.1 µM (top of the series) unless noted
# How it was run: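 SW480 cells exposed to compounds for 48 hr at 37 C, 5% CO2, then Hoechst-stained 40 min. Nuclear DNA content imaged by fluorescence scanning (405 nm excitation, 500-530 nm emission); re-replication scored as increased high-intensity nuclei.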
# Potency is the fitted concentration of half-maximal effect.
Compound,Potency,re-replication activation
COc1ccc(NC2=CC(=O)CC(c3ccccc3)C2)cc1 (stereo unspecified),"inconclusive: 16.4 µM [activator, single point]",
O=C(COC(=O)C1CCC1)NCCc1ccc(Cl)cc1Cl,"inconclusive: 23.1 µM [activator, partial curve, poor fit]",
Oc1ccccc1/C=N/NC(=S)NC1CC2CC1C1C=CCC21 (stereo unspecified),"inconclusive: 29.1 µM [activator, single point]",
CC(=O)O/N=C/c1c(N2CCOCC2)n(C)c2ccccc12,active: 1.84 µM,
CCOc1ccccc1NC1=CC(=O)CC(c2ccccc2)C1 (stereo unspecified),"inconclusive: 20.6 µM [activator, single point]",
O=C(Nc1nc(-c2ccccc2)nc2ccccc12)c1ccc(F)cc1,"inconclusive: 20.6 µM [activator, single point]",
CC/C(C)=N/NC(=O)c1[nH]c2ccc(C)cc2c1-c1ccccc1,"inconclusive: 29.1 µM [activator, single point]",
CCOC(=O)c1c(S(=O)(=O)N2CCCCC2C)c(C)n(C)c1C (stereo unspecified),,inactive: -5.02%
CSc1ccc(N2CCN(CCCNC(=O)Nc3ccccc3F)CC2)cc1,,inactive: -1.62%
O=C(CNC(=O)c1ccccc1)N/N=C/c1cn[nH]c1-c1ccccc1,,inactive: -4.55%
Clc1ccccc1C=NNc1ccccn1,,inactive: 0.034%
Cc1c(Cl)cccc1NC(=S)N(CCCN1CCOCC1)Cc1ccco1,"inconclusive: 0.0058 µM [activator, full curve, poor fit]",
CCOc1ccc(NC(=O)/C(C#N)=C\c2ccc(N3CCCC3)c(C)c2)cc1,"inconclusive: 2.91 µM [activator, partial curve, poor fit]",
CCOc1cc(-c2cc(-c3ccc(C)o3)nc(N)c2C#N)ccc1O,"inconclusive: 29.1 µM [activator, single point]",
CC(=O)c1c(C)[nH]c(C(=O)OCC(=O)c2c[nH]c3ccccc23)c1C,"inconclusive: 23.1 µM [activator, partial curve, poor fit]",
CCCN1C(=O)c2ccccc2NC1c1ccc(OC)cc1O (stereo unspecified),,inactive: 2.66%
COC(=O)Cc1ccc(NC(=O)c2ccc(NC(=O)c3ccco3)cc2)cc1,,inactive: -0.555%
O=C1CC(Nc2ccc(N3CCOCC3)cc2)C(=O)N1c1ccccc1 (stereo unspecified),"inconclusive: 29.1 µM [activator, single point]",
CC(C)C[C@H](NC(=O)c1nc[nH]c1C(=O)NC(c1ccccc1)c1ccccc1)C(=O)OC(C)(C)C,"inconclusive: 14.6 µM [activator, single point]",
O=C(Nc1ccccc1Cl)C1CCCN(c2ncnc3c2nc2n3CCCCC2)C1 (stereo unspecified),,inactive: 9.42%
O=C(/C=C/c1cccs1)Nc1nc(-c2ccccc2)cs1,,inactive: 14.2%
O=[N+]([O-])c1ccc(Sc2cccc[n+]2[O-])c2nonc12,"inconclusive: 0.517 µM [activator, full curve]",
COc1ccc(CNc2nc(NCc3ccc(OC)cc3)c3ncn(C4CCCC4)c3n2)cc1,active: 4.61 µM,

Compound,Potency,re-replication activation
CCC(=O)Nc1cc(OC)c(NC(=O)c2ccccc2)cc1OC,,inactive: -4.38%
N#Cc1ccccc1S(=O)(=O)N1CCN(C(=O)C2COc3ccccc3O2)CC1 (stereo unspecified),,inactive: -3.58%
COc1cc(/C=C2\SC(=S)N(Nc3ccccc3)C2=O)cc(OC)c1OC,,inactive: -9.13%
O=[N+]([O-])c1nn(-c2ccc3c(c2)OCCO3)n(O)c1=NCc1ccc(F)cc1Cl,,inactive: -4.1%
CC(C)C[C@H](NC(=O)c1nc[nH]c1C(=O)N[C@@H](CC(C)C)C(=O)OCc1ccccc1)C(=O)OCc1ccccc1,"inconclusive: 29.1 µM [activator, single point]",
C(=N\Nc1nc(Nc2ccccc2)nc(N2CCOCC2)n1)/c1c[nH]c2ccccc12,active: 0.82 µM,
COc1ccc(C(=O)CSc2nc(C)cc(C)n2)cc1[N+](=O)[O-],,inactive: -11.1%
CCC(=O)NC(=S)Nc1ccccc1OC,,inactive: -5.61%
O=S(=O)(c1ccc(Cl)cc1)c1nc(-c2ccco2)oc1N1CCOCC1,,inactive: -14.6%
COc1ccc(/C=C2/SC(=S)N(CCCC(=O)Nc3cccc(O)c3)C2=O)cc1,"inconclusive: 23.1 µM [activator, single point]",
CNc1c(-n2cc(C(=O)OC)c(C(=O)OC)c2C(=O)OC)c(=O)n(C)c(=O)n1C,,inactive: -0.754%
CCc1cc(=O)oc2cc(OCC(=O)NCCCn3ccnc3)ccc12,"inconclusive: 14.6 µM [activator, partial curve, poor fit]",
COc1ccc(-c2ccc(CNCCCN3CCOCC3)o2)cc1Cl,"inconclusive: 29.1 µM [activator, single point]",
CCOCCn1ccc2c(OCC(=O)Nc3ccc(OC)c(OC)c3)cccc2c1=O,"inconclusive: 7.31 µM [activator, partial curve, poor fit]",
CCC(CO)Oc1cc(NCc2ccc(C(=O)O)cc2)c2ncn(C(C)C)c2c1 (stereo unspecified),"inconclusive: 0.0046 µM [activator, full curve, poor fit]",
COC(=O)c1c(NC(=O)CSc2nncs2)sc2c1CCCCC2,"inconclusive: 1.03 µM [activator, full curve, poor fit]",
CCCn1c(=O)c(C(=O)NNC(=O)c2ccccc2Cl)c(O)c2ccccc21,,inactive: -18.1%
COc1cccc(NC(=O)CN(C)C(=O)CCN2C(=O)C3CC=CCC3C2=O)c1 (stereo unspecified),"inconclusive: 20.6 µM [activator, partial curve, poor fit]",
Cc1cccc(C)c1NC(=O)CSc1nnc(CCCCCNC(=O)OC(C)(C)C)o1,"inconclusive: 6.51 µM [activator, single point]",
O=C1c2ccc([N+](=O)[O-])cc2S(=O)(=O)N1Cc1ccccc1,"inconclusive: 29.1 µM [activator, single point]",
COc1cc(C2CC(=O)Nc3n[nH]c(-c4ccccc4)c32)cc(OC)c1OC (stereo unspecified),"inconclusive: 20.6 µM [activator, single point]",
CCOc1ccc(C(=O)NCC2(c3ccccc3)CCOCC2)cc1,"inconclusive: 18.4 µM [activator, single point]",
COc1cc(C2C(C#N)=C(N)Oc3cc4c(cc32)OCO4)cc(OC)c1OC (stereo unspecified),"inconclusive: 0.092 µM [activator, full curve, poor fit]",

# Reprinted at random: 2 compounds from above
Compound,Potency,re-replication activation
O=[N+]([O-])c1nn(-c2ccc3c(c2)OCCO3)n(O)c1=NCc1ccc(F)cc1Cl,,inactive: -4.1%
Cc1cccc(C)c1NC(=O)CSc1nnc(CCCCCNC(=O)OC(C)(C)C)o1,"inconclusive: 6.51 µM [activator, single point]",
